Source: PubChem BioAssay AID686943 (Drosophila RNAi Screening Center, 2013)
The screen tested about 23,000 reagents; this is an unselected part of those that have a named target and a result. 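Extra replicates exist only for a retested subset of genes; insulin dose and duration not given; both raised and lowered dpERK matter.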 Names joined by + are all predicted targets of the reagent. Not given: the amount of reagent, the time to read-out.

- Purpose: 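Search across the genome for regulators of signalling from receptor tyrosine kinase to ERK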 (primary screen)
- System: Drosophila S2R+ haemocyte-like cells expressing YFP-tagged ERK (Rolled)
- Knock-down reagent: long dsRNA against Drosophila genes
- Conditions: insulin stimulation versus unstimulated cells; dose and duration not given
- Detection: 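Per-plate z-scores of phospho-ERK immunostaining normalised to YFP-tagged ERK, measured with and without insulin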
- Reading the numbers: replicate 1, z-score of dpERK with insulin and replicate 2, z-score of dpERK with insulin: higher = more active ERK per ERK-YFP after insulin; replicate 1, z-score of dpERK under basal conditions: higher = more basal active ERK per ERK-YFP; replicate 1, z-score of ERK-YFP with insulin: higher = more YFP-tagged ERK signal

The first 5 entries as a preview:
gene	dsRNA	replicate 1, z-score of dpERK with insulin	replicate 2, z-score of dpERK with insulin	replicate 1, z-score of dpERK under basal conditions	replicate 1, z-score of ERK-YFP with insulin
CG8236	DRSC16399	-0.22	0.33	0.45	0.35
Syx6 (Syntaxin 6)	DRSC07032	-0.87	-0.65	0.24	0.09
Rab9Db + Rab9D + Rab9E	DRSC17656	-0.62	-0.27	0.37	0.36
Uev1A (Ubiquitin-conjugating enzyme variant 1A)	DRSC09763	-1	-1.26	0.78	0.22
CG7376	DRSC10829	0.32	1.25	6.49	0.08

Main list, repeating the preview:
gene	dsRNA	replicate 1, z-score of dpERK with insulin	replicate 2, z-score of dpERK with insulin	replicate 1, z-score of dpERK under basal conditions	replicate 1, z-score of ERK-YFP with insulin
CG8236	DRSC16399	-0.22	0.33	0.45	0.35
Syx6 (Syntaxin 6)	DRSC07032	-0.87	-0.65	0.24	0.09
Rab9Db + Rab9D + Rab9E	DRSC17656	-0.62	-0.27	0.37	0.36
Uev1A (Ubiquitin-conjugating enzyme variant 1A)	DRSC09763	-1	-1.26	0.78	0.22
CG7376	DRSC10829	0.32	1.25	6.49	0.08
CG33099	DRSC15774	-0.03	-0.73	-0.42	-0.22
Or46a + asRNA:CR43467	DRSC07489	0.1	-0.22	-0.74	0.22
Or46a + asRNA:CR43467	DRSC07490	0.13	0.16	-0.26	0.3
Or46a + asRNA:CR43467	DRSC21590	-0.04	-0.19	-0.37	0.42
CG31482	DRSC12582	-0.3	0.18	0.18	0.33
CG8314	DRSC07144	0.26	0.27	-0.46	0.85
CG13239	DRSC11694	0.34	-1.84	0.46	-0.93
CG33137	DRSC22131	0.44	-0.46	-0.53	0.06
CG33258	DRSC09415	0.17	0.69	0.77	-0.03
nclb (no child left behind)	DRSC07009	-0.13	0.4	-0.36	0.04
Teh3 (tipE homolog 3)	DRSC08537	1.2	0.43	0.35	-0.4
CG33255 (retired record) + hpRNA:CR32205 + CR42838	DRSC09611	-0.05	0.21	-0.99	0.42
Mcm6 (Minichromosome maintenance 6)	DRSC18680	0.28	-0.11	0	0.14
CG4660	DRSC18378	-0.17	-0.13	1.03	0.04
CG34454	DRSC07864	-0.08	-0.21	0.85	0.68
CG31804	DRSC22728	-0.22	-0.07	-0.34	0.57
CG5850	DRSC02905	0.26	0.87	1.16	-0.24
CG14628	DRSC18626	-0.14	-0.17	-0.56	-0.02
IM33 (Immune induced molecule 33)	DRSC00476	-0.28	0.64	-0.62	0.12
Nup98-96 (Nucleoporin 98-96kD)	DRSC14209	-0.54	1.14	3.82	-3.69
Nup98-96 (Nucleoporin 98-96kD)	DRSC14210	0.91	0.12	-0.72	-5.44
Pcf11 (Pcf11 cleavage and polyadenylation factor subunit)	DRSC05983	0.38	-1.71	-2.13	-3.07
Rph (Rabphilin)	DRSC17790	-1.7	-0.79	-0.83	1.27
Cyp4g15 (Cytochrome P450 4g15)	DRSC20240	-0.92	-0.15	-0.6	0.6
RanBP3 (Ran binding protein 3)	DRSC14217	-0.69	0.63	-0.32	1.39
mRpL14 (mitochondrial ribosomal protein L14)	DRSC18597	-0.22	-1.26	-1.11	1.47
CG15771	DRSC18077	0.52	0.22	0.66	0.18
CG12730	DRSC17885	0.11	-0.22	1.21	0.1
CG33012	DRSC06287	0.66	0.6	0.68	-0.39
CG33012	DRSC06288	0.93	1.47	0.96	0.03
CG11596	DRSC18540	-0.22	-0.79	-0.24	0.27
ppk23 (pickpocket 23)	DRSC20110	-1.43	0.13	0.13	-0.04
CG11436	DRSC17783	-0.66	0.18	0.2	-0.65
GstO3 (Glutathione S transferase O3)	DRSC10710	0.01	0.5	-0.04	0.12
CG42327	DRSC14936	-2.18	0.82	-0.44	1.48
CG42327	DRSC14937	0.76	1.04	0.09	0.52
CG30010	DRSC05193	1.31	0.33	-0.33	-0.69
Nadsyn (NAD synthetase)	DRSC20222	0.48	0.75	0.29	0.96
CG8260	DRSC20098	0.16	0.25	-1.37	0.31
CG13694	DRSC00363	-0.42	0.02	0.43	0.15
CG42634 + CG42635	DRSC02450	-0.39	0.31	0	0.22
CG1172 + Or83a	DRSC12357	-0.17	-0.69	0.69	-0.3
Spn77Ba (Serpin 77Ba)	DRSC10693	0.09	-0.12	0.47	-2.34
CG11898	DRSC14432	1.39	0.49	0.78	-0.01
CG6409	DRSC10630	0.07	0.49	-0.07	0.76
CG6409	DRSC22330	-0.07	0.34	-0.16	0.4
CG11342	DRSC08175	-0.11	0.55	-0.1	-0.2
tobi (target of brain insulin)	DRSC14435	0.31	0	2.05	0.19
cg (combgap)	DRSC07650	-5.99	-4.05	-3.03	-5.01
Tig (Tiggrin)	DRSC03456	1.4	0.4	-0.94	-2.1
Rchy1 (Ring finger and CHY zinc finger domain containing 1)	DRSC02542	-0.25	-0.52	-0.54	-0.05
MED16 (Mediator complex subunit 16)	DRSC04506	-1.33	0.91	-0.02	1.62
Brf (Brf RNA polymerase III subunit)	DRSC13228	-0.13	0.97	0.99	2.99
Brf (Brf RNA polymerase III subunit)	DRSC14166	0.53	-0.13	-0.25	-0.25
Brf (Brf RNA polymerase III subunit)	DRSC14167	-0.05	0.04	-0.17	-0.59
CG31917 + Tfb5	DRSC02362	0.22	0.3	-0.81	1.19
CG31917 + Tfb5	DRSC02363	1.59	-0.62	-0.09	-4.8
nyo (nyobe)	DRSC15029	0.8	0	0.47	0.05
nyo (nyobe)	DRSC15030	-1.55	0.97	0.37	-0.49
CG3483	DRSC04371	0.93	0.73	0.01	-0.37
CG32320	DRSC21514	0.48	0.57	0.1	-0.56
Mt2 (Methyltransferase 2)	DRSC03374	-0.72	-0.05	0.69	-0.13
TwdlB (TweedleB)	DRSC16050	0.52	-1.45	1.28	1.21
CG6325	DRSC16020	0.68	0.34	0.16	-0.9
UbcE2H (Ubiquitin conjugating enzyme E2H)	DRSC18221	-0.47	-2.4	0.49	0.42
CG5265	DRSC15756	0.09	0.36	-0.47	-0.59
CG3526	DRSC17240	1.72	0.48	-0.31	0.5
CG3526	DRSC18636	1.31	0.1	-0.22	-0.36
